# Laboratory results published in PubChem BioAssay AID330 (DTP/NCI, 2004).
# The list shows only some results of the screen, not a fair sample: it gathers tests that were run many times, whatever their T/C, doses with no T/C, and many T/C values between a quarter and a half above the control. Other doses and runs of a compound stand elsewhere. T/C: endpoint of the treated group in % of that of the vehicle group. Some entries give survivors of the animals treated and no T/C: the source holds a T/C of zero for them, seemingly a mark for toxic or unscored doses. Some doses without a T/C left all or most animals alive at the check, yet need not have been tolerated: survival well below the control is almost never listed, so the zero probably covers shortened survival too. Survivors were counted at the toxicity check, usually on the fifth day, unless a day is given; later deaths do not show. Schedules are NCI's codes, read here as Q, the interval in days (D) or hours (H), X, the number of doses. Some entries hold several experiments; the results are listed from low to high. Additions like (4×) say how often a value occurs here. Some molecules as drawn cover several salts, stereoisomers or complexes of the source; a dose is that of the sample tested. Where survival is the endpoint, this PubChem deposit counts one and a half times the control or more as active, and values a quarter to a half above the control carry no call in these data; other NCI protocols may use other cut-offs. Some T/C values are followed by the survivors on the day toxicity was checked, most often the fifth; where none is given, no animal had died by that day.
# Test system: P388 leukemia ip, CD2F1 mice, survival T/C
# Assay: NCI In Vivo Anticancer Drug Screen. Data for tumor model P388 Leukemia (intraperitoneal) in CD2F1 (CDF1) mice
# Conditions: T/C endpoint: median survival time, higher T/C = longer survival
# [1] = dose: 100.0 mg/kg/injection, schedule: Q01DX009 (ip), vehicle: saline
# [2] = dose: 200.0 mg/kg/injection, schedule: Q01DX009 (ip), vehicle: saline
# [3] = dose: 400.0 mg/kg/injection, schedule: Q01DX009 (ip), vehicle: saline
# [4] = dose: 50.0 mg/kg/injection, schedule: Q01DX009 (ip), vehicle: saline with Tween-80
# [5] = dose: 200.0 mg/kg/injection, schedule: Q01DX009 (ip), vehicle: saline with Tween-80
# [6] = dose: 200.0 mg/kg/injection, schedule: Q01DX005 (ip), vehicle: Klucel (hydroxypropylcellulose) (HPC)
structure (smiles),measurement,setting,value
Nc1nc(F)nc2c1ncn2C1OC(COP(=O)(O)O)C(O)C1O (stereo not given),T/C,"dose: 50.0 mg/kg/injection, schedule: Q01DX009 (ip), vehicle: Klucel (hydroxypropylcellulose) (HPC)",136 % of control
same,T/C,"dose: 60.0 mg/kg/injection, schedule: Q01DX009 (ip), vehicle: saline, evaluated on day 30",148 % of control
same,T/C,"dose: 60.0 mg/kg/injection, schedule: Q01DX009 (ip), vehicle: saline, evaluated on day 45","147, 149 (2×), 155 % of control"
same,T/C,"dose: 60.0 mg/kg/injection, schedule: Q01DX009 (ip), vehicle: saline, evaluated on day 60","143, 146, 151, 156, 163 % of control"
same,T/C,"dose: 90.0 mg/kg/injection, schedule: Q01DX009 (ip), vehicle: saline, evaluated on day 30",164 % of control
same,T/C,"dose: 90.0 mg/kg/injection, schedule: Q01DX009 (ip), vehicle: saline, evaluated on day 45","173, 175 (2×), 177 (2×), 178, 186 % of control"
same,T/C,"dose: 90.0 mg/kg/injection, schedule: Q01DX009 (ip), vehicle: saline, evaluated on day 60","161, 166, 171, 175, 177 (2×), 182 % of control"
same,T/C,"dose: 134.0 mg/kg/injection, schedule: Q01DX009 (ip), vehicle: saline, evaluated on day 30",199 % of control
same,T/C,"dose: 134.0 mg/kg/injection, schedule: Q01DX009 (ip), vehicle: saline, evaluated on day 45","194, 202, 203, 207, 214, 215, 226 % of control"
same,T/C,"dose: 134.0 mg/kg/injection, schedule: Q01DX009 (ip), vehicle: saline, evaluated on day 60","191 (2×), 198, 202, 203 (2×), 213 % of control"
same,T/C,"dose: 200.0 mg/kg/injection, schedule: Q01DX009 (ip), vehicle: saline, evaluated on day 30",233 % of control
same,T/C,"dose: 200.0 mg/kg/injection, schedule: Q01DX009 (ip), vehicle: saline, evaluated on day 45","138, 224, 225, 235 (2×), 241, 247 % of control"
same,T/C,"dose: 200.0 mg/kg/injection, schedule: Q01DX009 (ip), vehicle: saline, evaluated on day 60","110, 218, 224 (2×), 229, 230, 248 % of control"
same,T/C,"dose: 250.0 mg/kg/injection, schedule: Q01DX009 (ip), vehicle: saline, evaluated on day 45",89 and 116 % of control
same,T/C,"dose: 250.0 mg/kg/injection, schedule: Q01DX009 (ip), vehicle: saline, evaluated on day 60",105 and 106 % of control
same,survivor count,"dose: 400.0 mg/kg/injection, schedule: Q01DX009 (ip), vehicle: Klucel (hydroxypropylcellulose) (HPC)",3 of 6 and 6 of 6
same,T/C,"dose: 400.0 mg/kg/injection, schedule: Q04DX002 (ip), vehicle: saline",127 % of control
same,T/C,"dose: 800.0 mg/kg/injection, schedule: Q01DX001 (ip), vehicle: saline, evaluated on day 5",138 % of control
same,T/C,"dose: 800.0 mg/kg/injection, schedule: Q01DX001 (ip), vehicle: saline, evaluated on day 45",137 % of control [9 of 10 alive]
same,T/C,"dose: 800.0 mg/kg/injection, schedule: Q04DX002 (ip), vehicle: saline",137 and 147 % of control
same,T/C,"dose: 1200.0 mg/kg/injection, schedule: Q01DX001 (ip), vehicle: saline, evaluated on day 5",143 % of control
same,T/C,"dose: 1200.0 mg/kg/injection, schedule: Q01DX001 (ip), vehicle: saline, evaluated on day 45",145 % of control [9 of 10 alive]
same,T/C,"dose: 1500.0 mg/kg/injection, schedule: Q01DX001 (ip), vehicle: saline",142 % of control [7 of 10 alive]
same,survivor count,"dose: 1800.0 mg/kg/injection, schedule: Q01DX001 (ip), vehicle: saline",2 of 4 and 5 of 10
COc1cccc2c1C(=O)c1c(O)c3c(c(O)c1C2=O)CC(O)(/C(C)=N/NC(=O)CCC(=O)N/N=C(\C)C1(O)Cc2c(O)c4c(c(O)c2C(OC2CC(N(C)C)C(O)C(C)O2)C1)C(=O)c1c(OC)cccc1C4=O)CC3OC1CC(N(C)C)C(O)C(C)O1 (stereo not given),T/C,"dose: 1.0 mg/kg/injection, schedule: Q01DX009 (ip), vehicle: water",139 % of control
same,T/C,"dose: 2.0 mg/kg/injection, schedule: Q01DX009 (ip), vehicle: water",143 % of control
same,survivor count,"dose: 16.0 mg/kg/injection, schedule: Q01DX009 (ip), vehicle: water",6 of 6
same,survivor count,"dose: 32.0 mg/kg/injection, schedule: Q01DX009 (ip), vehicle: water",2 of 3 and 6 of 6
COc1cc(-c2ccc(N=Nc3ccc4c(S(=O)(=O)O)cc(S(=O)(=O)O)c(N)c4c3O)c(OC)c2)ccc1N=Nc1ccc2c(S(=O)(=O)O)cc(S(=O)(=O)O)c(N)c2c1O,survivor count,"dose: 50.0 mg/kg/injection, schedule: Q01DX009 (ip), vehicle: saline",6 of 6
same,survivor count,[1],5 of 6
same,survivor count,[2],0 of 6
same,survivor count,[3],0 of 6
Cc1ccc(NC(=O)NC(=O)CCl)cc1,survivor count,[4],5 of 6
same,survivor count,"dose: 100.0 mg/kg/injection, schedule: Q01DX009 (ip), vehicle: Klucel (hydroxypropylcellulose) (HPC)",0 of 6
same,survivor count,"dose: 200.0 mg/kg/injection, schedule: Q01DX009 (ip), vehicle: Klucel (hydroxypropylcellulose) (HPC)",0 of 6 (2×)
same,survivor count,[5],0 of 6
O=S1(=O)Cc2ccccc21,survivor count,"dose: 400.0 mg/kg/injection, schedule: Q01DX001 (ip), vehicle: Klucel (hydroxypropylcellulose) (HPC)",0 of 6
N#Cc1nnc2cc(-c3ccccc3)nn2c1-c1ccco1,survivor count,"dose: 240.0 mg/kg/injection, schedule: Q01DX005 (ip), vehicle: Klucel (hydroxypropylcellulose) (HPC)",6 of 6
Nc1cc2c(c[n+](Cc3ccccc3)c3ccccc23)c2ccccc12,survivor count,"dose: 3.13 mg/kg/injection, schedule: Q04DX003 (ip), vehicle: water",1 of 6
same,survivor count,"dose: 6.25 mg/kg/injection, schedule: Q04DX003 (ip), vehicle: water",0 of 6
same,survivor count,"dose: 12.5 mg/kg/injection, schedule: Q04DX003 (ip), vehicle: water",6 of 6
same,survivor count,"dose: 25.0 mg/kg/injection, schedule: Q04DX003 (ip), vehicle: water",6 of 6
same,survivor count,"dose: 50.0 mg/kg/injection, schedule: Q04DX003 (ip), vehicle: water",4 of 6
same,survivor count,"dose: 100.0 mg/kg/injection, schedule: Q04DX003 (ip), vehicle: water",3 of 6
same,survivor count,"dose: 200.0 mg/kg/injection, schedule: Q04DX003 (ip), vehicle: water",2 of 6
OC1c2ccccc2-c2nc3ccccc3cc21 (stereo not given),survivor count,[6],6 of 6
Cc1ccc(O)c(N)c1,survivor count,[1],6 of 6
same,T/C,[2],132 % of control
same,survivor count,[3],"0 of 6, 1 of 6, 4 of 6"
same,survivor count,"dose: 600.0 mg/kg/injection, schedule: Q01DX009 (ip), vehicle: saline",0 of 6
CC1=C[P+](c2ccccc2)(c2ccccc2)C=C(c2ccccc2)O1,T/C,"dose: 1.56 mg/kg/injection, schedule: Q01DX005 (ip), vehicle: saline",128 % of control
same,T/C,"dose: 3.12 mg/kg/injection, schedule: Q01DX005 (ip), vehicle: saline",143 % of control
same,survivor count,"dose: 12.5 mg/kg/injection, schedule: Q01DX005 (ip), vehicle: saline",2 of 5 and 4 of 5
same,survivor count,"dose: 25.0 mg/kg/injection, schedule: Q01DX005 (ip), vehicle: saline",3 of 5 and 4 of 5
same,survivor count,"dose: 50.0 mg/kg/injection, schedule: Q01DX005 (ip), vehicle: saline",0 of 5
CCCCCCCCCCCCCCCCCC1=NC(C)CC(C)(C)O1 (stereo not given),survivor count,[3],5 of 6
C[C@@H]1C[C@](O)([C@@H](C)Cl)C(=O)O[C@@H]2CCN3CC=C(COC(=O)[C@]1(C)O)[C@H]23,survivor count,"dose: 44.0 mg/kg/injection, schedule: Q01DX009 (ip), vehicle: saline",2 of 5
C=CC(=NC(C)(C)C)Nc1ccccc1,survivor count,[4],2 of 6
same,survivor count,"dose: 100.0 mg/kg/injection, schedule: Q01DX009 (ip), vehicle: saline with Tween-80",0 of 6
same,survivor count,[5],0 of 6
Nc1ccc(S(=O)(=O)n2c(=O)oc3cc(Cl)ccc32)cc1,survivor count,"dose: 100.0 mg/kg/injection, schedule: Q01DX005 (ip), vehicle: Klucel (hydroxypropylcellulose) (HPC)",6 of 6
same,survivor count,[6],6 of 6
O=C1NC2(CCCCC2)C(=O)N1CCCN(CCCl)CCCl,T/C,"dose: 1.5 mg/kg/injection, schedule: Q01DX005 (ip), vehicle: saline",142 % of control
same,T/C,"dose: 3.0 mg/kg/injection, schedule: Q01DX005 (ip), vehicle: saline",136 and 149 % of control
same,survivor count,"dose: 24.0 mg/kg/injection, schedule: Q01DX005 (ip), vehicle: saline",5 of 6
